# Laboratory results: patent US20260034206A1
# No constants are given. Whether binding was seen depends on the method and setting. Some entries that bind do so weakly or less than the wild type. For some assays here: Where a sequence is shown, tags or fusion partners need not be part of it.
# Experiments:
# [1] = biological target: G434-P548-His6 recombinant peptide of BFSP1 (human) (UniProt Q12934); assay: self-association; electron microscopy with negative staining, SEC
# [2] = biological target: Myr-G434-P548-His6 fragment of BFSP1 (human) (UniProt Q12934); assay: as above
Molecule,binding [1],binding [2]
G434-P548-His6 recombinant peptide of BFSP1 (from UniProt Q12934 434-548),binds,–
Myr-G434-P548-His6 fragment of BFSP1 (protein) GGQISKGFGKLYRKVKEKVRSPKEPETPTELYTKERHVLVTGDANYVDPRFYVSSITAKGGVAVSVAEDSVLYDGQVEPSPESPKPPLENGQVGLQEKEDGQPIDQQPIDKEIEPHHHHHH,–,binds
